According to the supplement of paper PMC3334620:
In all, about 33,000 sequences were measured (“E-score (-0.5 to 0.5)”: median about -0.0014, highest 2% from about 0.25 on). The list shows a part of the results.

Molecular target: T1, Cad1 (UniProt P24813)
T1 sequence: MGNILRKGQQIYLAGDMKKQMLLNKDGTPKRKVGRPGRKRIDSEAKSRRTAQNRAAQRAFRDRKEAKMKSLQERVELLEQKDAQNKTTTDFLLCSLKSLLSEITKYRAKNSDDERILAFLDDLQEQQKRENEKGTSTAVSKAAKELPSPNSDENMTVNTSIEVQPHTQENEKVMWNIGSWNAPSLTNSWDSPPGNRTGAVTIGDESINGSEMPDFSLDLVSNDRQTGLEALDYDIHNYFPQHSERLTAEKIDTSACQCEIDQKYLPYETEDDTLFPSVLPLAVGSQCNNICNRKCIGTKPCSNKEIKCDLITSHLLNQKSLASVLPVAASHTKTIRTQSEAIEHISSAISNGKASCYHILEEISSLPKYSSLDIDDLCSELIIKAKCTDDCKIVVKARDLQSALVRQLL
Assay: PBM E-score (8-mer binding enrichment) (E-score (-0.5 to 0.5)); higher = stronger / more preferred TF binding
Settings: protein concentration: 100 nM; construct: GST-full length
Summary of the method: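 E-scores (a modified Wilcoxon-Mann-Whitney statistic) were assigned by the Universal PBM Analysis Suite to every ungapped eight-base word pooled with its reverse complement. The input came from universal all-10-mer Agilent arrays made double-stranded by primer extension and probed with GST-tagged yeast transcription factors at about 100-200 nM. Fluorescent anti-GST detected bound protein, and masliner normalised the scans.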

Row | Sequence | PBM E-score
1 | GGGGTTAC | -0.29
2 | CGGGAATA | -0.00204
3 | AGCAGAAC | 0.0692
4 | CGATCCCG | -0.265
5 | TATGGTGA | -0.0568
6 | GAGGGGCC | -0.25
7 | CTCCGCCA | -0.217
8 | ACTTGCCC | -0.0536
9 | CCTTACAA | -0.0338
10 | AGTAGTAG | -0.0473
11 | AATATACT | 0.0724
12 | CAAACTAA | 0.258
13 | AAGGATTC | -0.104
14 | GGGACCAA | -0.118
15 | GCTCAGCC | -0.143
16 | GAGGACAA | -0.133
17 | CGGAGGTC | -0.155
18 | TACAACGA | 0.0596
19 | CAATTTGA | -0.0156
20 | ATAGCCCA | 0.062
21 | CCCCGCGA | -0.0941
22 | CCCTGACA | -0.0982
23 | CATAGTTA | 0.0274
24 | ACTTCGCT | 0.0324
25 | ATAAGCTC | 0.121

Row | Sequence | PBM E-score
26 | ACACGCTG | 0.0723
27 | CGAAACCC | 0.0648
28 | CCAGCTGC | -0.0793
29 | GATTTGAC | 0.0609
30 | AATCTATG | 0.104
31 | AGCGTGGC | 0.0167
32 | CTGTCGGC | -0.107
33 | AATATCGC | 0.162
34 | CCCAAACA | 0.0806
35 | CGCGATTA | 0.187
36 | AGTGACCC | -0.137
37 | ATTGATCA | 0.0521
38 | GATTTCGC | 0.28
39 | GAGTTTCA | 0.0278
40 | CCACGCGC | -0.13
41 | GCGTGTAC | 0.0406
42 | CCGTTGTA | 0.193
43 | CAAGTTAG | -0.0472
44 | CTCTAAAA | -0.0258
45 | AATACTTG | 0.0385
46 | CACGCAGC | -0.0845
47 | ATAGATCG | -0.113
48 | AGTACGTC | -0.0323
49 | AAGATTTA | -0.0543
50 | AGGTCAGC | 0.0991

A different layout for part of the listing above.
Row	Sequence	PBM E-score
28	CCAGCTGC	-0.0793
29	GATTTGAC	0.0609
30	AATCTATG	0.104
31	AGCGTGGC	0.0167
32	CTGTCGGC	-0.107

Additional records:

Row | Sequence | PBM E-score
51 | CGCCTAAA | -0.109
52 | TATATCAA | 0.183
53 | CCCATGCG | -0.0811
54 | GCAGCTAC | 0.184
55 | AACAACCT | -0.161
56 | AACACGTC | -0.0172
57 | AGGGTATC | -0.0476
58 | ACACTCTC | 0.0871
59 | AGCGAAAC | 0.206
60 | CGCCAACC | -0.114
61 | GCATCTCC | -0.217
62 | GGTAGAAA | -0.08
63 | AGATATAT | 0.193
64 | CCGCCACA | -0.146
65 | CTTTTTCC | 0.018
66 | AGAAGCCT | -0.00153
67 | AGGCTGGC | -0.355
68 | CGGTAGAG | -0.115
69 | CGGCCCGC | 0.00361
70 | AAACAACG | -0.054
71 | AGGCCTTG | -0.142
72 | GTGGATAA | 0.0412
73 | GAGGTCGA | -0.153
74 | CGTTCTAA | 0.0756
75 | AAGATGGG | -0.0605

Taken from above.
Entry for AGATATAT under PBM E-score: 0.193
Entry for CTCCGCCA under PBM E-score: -0.217

(list continues)

Row | Sequence | PBM E-score
76 | CAACCACC | -0.036
77 | GGCTCCCA | -0.326
78 | ATGGAGGG | -0.255
79 | ATTGCCGC | -0.00666
80 | GCCGTCGA | 0.174
81 | TCACCCAA | 0.0405
82 | ACCTGAAC | -0.116
83 | GCTGATCC | 0.0438
84 | AGTCCATG | -0.137
85 | CGGTACAA | 0.0609
86 | AAAATATC | 0.198
87 | AGAATAAC | 0.0467
88 | GTAGAGAA | 0.0517
89 | AGCTCCCA | -0.195
90 | ATTACTGC | 0.203
91 | CACGGTCC | -0.365
92 | CCACTTCA | -0.152
93 | ACCGTGCA | 0.117
94 | AACATCTA | -0.15
95 | CCAGAATA | 0.138
96 | AAAAACTC | 0.12
97 | CCAACTAA | 0.0925
98 | GATTCTGC | 0.0858
99 | GTGGTAAA | 0.126
100 | CAGATTCA | -0.182

From no. 43 as far as 44, copied from above:
Row | Sequence | PBM E-score
43 | CAAGTTAG | -0.0472
44 | CTCTAAAA | -0.0258

Remaining list, next part.

Row | Sequence | PBM E-score
101 | ACCCTTCC | -0.181
102 | ATTGAAAA | 0.224
103 | ATCCCGAT | 0.0794
104 | GCTAATTA | 0.306
105 | GCGATCGA | 0.248
106 | ATCAAACG | 0.139
107 | ACTTCGGC | -0.0559
108 | TCATACGA | 0.0873
109 | CTTTCATC | 0.0102
110 | GAGCTGAC | 0.239
111 | CGCGGCCC | -0.0151
112 | GCCTTAAA | 0.133
113 | ACATGTGG | 0.114
114 | AAGTTGGA | -0.127
115 | CGGAAGAC | 0.146
116 | CTTTAGCA | -0.122
117 | ACCCATGG | -0.148
118 | CGATATTA | 0.352
119 | CCATGAGG | -0.238
120 | GCAGAAAA | 0.123
121 | CGTTAGGA | 0.0257
122 | CGGTTTAA | -0.119
123 | CACTATTA | 0.131
124 | CATCAGAC | -0.00947
125 | ACGCCCAT | -0.0524

Row | Sequence | PBM E-score
126 | CCAAGCAA | 0.0285
127 | CACGTGCC | 0.0711
128 | CTGTTTCC | -0.117
129 | AGTTAGAG | -0.126
130 | AATGATCC | -0.0772
131 | AGAACAAG | 0.173
132 | AAGTAGCT | -0.0432
133 | GTTGTATA | 0.11
134 | AAGAGGCA | -0.116
135 | ACGTGTGC | -0.212
136 | AAAGTCGG | -0.0977
137 | AGAATTGA | -0.0421
138 | GTTAGTGA | -0.0153
139 | CTGCGACC | -0.106
140 | AACGCCGA | 0.0975
141 | TTATCCAA | 0.189
142 | GACGGAAC | 0.0293
143 | AGCAGTGG | -0.0575
144 | AGGTCTGA | 0.0845
145 | AGAAAAAT | 0.133
146 | ACTCGAGG | 0.107
147 | CCTTGCCG | -0.0655
148 | GACAGCGC | 0.14
149 | AGCGGAAC | 0.144
150 | CTAGCTTA | 0.135

Row | Sequence | PBM E-score
151 | ATAGCGGA | -0.102
152 | GGACAATA | 0.161
153 | ACTATAAT | 0.0905
154 | CACTATGA | -0.0728
155 | CCCAACAC | -0.18
156 | ACGTTGCG | 0.199
157 | CCACAAAA | 0.0925
158 | AGGAAATC | -0.0121
159 | AAATCATC | -0.0859
160 | GCCATAGC | -0.01
161 | CCTGTAAC | 0.0235
162 | AGACTCTG | -0.0309
163 | AAAAATGT | 0.0351
164 | GTCAGAAC | -0.0296
165 | CAATATCA | 0.0979
166 | CAGCGGAA | 0.0922
167 | AGGTTACT | -0.0566
168 | CACCCCGG | -0.344
169 | GAAGACGC | -0.0488
170 | AATCACAC | 0.0391
171 | GGAGTTAC | -0.0248
172 | GACGATTA | 0.14
